According to the supplement of paper PMC4604168 (melanoma cell lines):
The other results are listed elsewhere or left out. Repeats are few or missing, and single values can be far off.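 Imaging used 1,536-well plates; nuclei positive for cleaved PARP by antibody were divided by total DNA-stained nuclei to yield the apoptosis fraction. Doses for screening kept most cells viable, and cell lines differ markedly in resting and induced cleaved-PARP levels.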

What follows are molecules tested on 501Mel (assay: cleaved PARP positive nuclei fraction relative to DMSO control; melanoma cells; higher = more apoptosis). Conditions: library dose: low library concentration; 72 h.
With `CN(C)S(=O)(=O)c1ccc2c(c1)/C(=C/c1cc3c([nH]1)CCCC3)C(=O)N2` + COc1cc2ncnc(Nc3ccc(Oc4ccccc4)cc3)c2cc1OC [SrcI1] (first compound 0.4 µM, partner dose 2 µM) the “cleaved PARP positive nuclei fraction” value was 63.4%. In the case of `NCC(=O)Nc1ccc(-n2nc(C(F)(F)F)cc2-c2ccc3c(ccc4ccccc43)c2)cc1` + Cn1cc(/C=C2\C(=O)Nc3cccnc32)c2ccccc21 [GW441756] (first compound 1 µM, partner dose 0.4 µM), the “cleaved PARP positive nuclei fraction” value was 393%. With `O=C(Nc1ccccc1)c1cc([N+](=O)[O-])ccc1Cl` + Oc1cc(-c2nc(-c3ccccc3)[nH]c2-c2ccncc2)ccc1Cl [L779450] (first compound 2 µM, partner dose 0.2 µM) the “cleaved PARP positive nuclei fraction” value was 80.2%. With `O=C1NC(=O)/C(=C/c2ccc(-c3ccc(F)cc3O)o2)S1` + c1cc(-c2cnn3cc(-c4ccc(OCCN5CCCCC5)cc4)cnc23)ccn1 [Dorsomorphin] (first compound 1 µM, partner dose 0.4 µM) the “cleaved PARP positive nuclei fraction” value was 91.6%. In the case of `COC(=O)c1sccc1S(=O)(=O)Nc1ccc(Nc2ccccc2)cc1OC` + COc1ccc(COc2ccc(Cc3cnc(N)nc3N)cc2OC)cc1 [GW2580] (first compound 1 µM, partner dose 1 µM), the “cleaved PARP positive nuclei fraction” value was 59.8%. `COc1cc2c(Oc3ccc4[nH]c(C)cc4c3F)ncnc2cc1OCCCN1CCCC1` [cediranib] + CCN(CC)CCCCNc1ncc2cc(-c3cc(OC)cc(OC)c3)c(NC(=O)NC(C)(C)C)nc2n1 [PD173074] (first compound 0.4 µM, partner dose 0.1 µM) was tested, and the “cleaved PARP positive nuclei fraction” value was 67.1%. In the case of `O=C1NC(=O)/C(=C/c2ccc(-c3ccc(F)cc3O)o2)S1` + COc1cc(N2CCC(N3CCN(C)CC3)CC2)ccc1Nc1ncc(Cl)c(Nc2ccccc2S(=O)(=O)C(C)C)n1 [NVP-TAE684] (first compound 1 µM, partner dose 0.08 µM), the “cleaved PARP positive nuclei fraction” value was 91.1%. With `O=C(O)c1ccc(-c2c[nH]c3ncc(-c4ccccc4)cc23)cc1C1CCCC1` + O=C(O)C(=O)Nc1sc2c(c1C(=O)O)CCNC2 [TCS401] (first compound 0.16 µM, partner dose 1.66667 µM) the “cleaved PARP positive nuclei fraction” value was 100%. With `CN(NC(=O)CC(=O)NN(C)C(=S)c1ccccc1)C(=S)c1ccccc1` + CCN(CC)CCCCNc1ncc2cc(-c3cc(OC)cc(OC)c3)c(NC(=O)NC(C)(C)C)nc2n1 [PD173074] (first compound 0.006 µM, partner dose 0.1 µM) the “cleaved PARP positive nuclei fraction” value was 151%. `NCC(=O)Nc1ccc(-n2nc(C(F)(F)F)cc2-c2ccc3c(ccc4ccccc43)c2)cc1` + Cc1cc([N+](=O)[O-])ccc1NS(=O)(=O)c1cc(Cl)ccc1Cl [FH535] (first compound 1 µM, partner dose 1 µM) was tested, and the “cleaved PARP positive nuclei fraction” value was 434%. For `COc1ccc(COc2ccc(Cc3cnc(N)nc3N)cc2OC)cc1` + O=S(=O)(c1ccccc1)N(CC(F)(F)F)c1ccc(C(O)(C(F)(F)F)C(F)(F)F)cc1 [T0901317] (first compound 1 µM, partner dose 1.4 µM), the “cleaved PARP positive nuclei fraction” value was 84.6%. With `O=C(Nc1ccccc1)c1cc([N+](=O)[O-])ccc1Cl` + COc1ccc(COc2ccc(Cc3cnc(N)nc3N)cc2OC)cc1 [GW2580] (first compound 2 µM, partner dose 1 µM) the “cleaved PARP positive nuclei fraction” value was 51.9%. In the case of `NCC(=O)Nc1ccc(-n2nc(C(F)(F)F)cc2-c2ccc3c(ccc4ccccc43)c2)cc1` + COc1ccc(-c2ccc3c(N4CCOCC4)nc(N4C[C@@H](C)O[C@@H](C)C4)nc3n2)cc1CO [KU0063794] (first compound 1 µM, partner dose 0.02 µM), the “cleaved PARP positive nuclei fraction” value was 528%. For `COc1cc2c(Oc3ccc4[nH]c(C)cc4c3F)ncnc2cc1OCCCN1CCCC1` [cediranib] + COc1ccc(-c2ccc3c(N4CCOCC4)nc(N4C[C@@H](C)O[C@@H](C)C4)nc3n2)cc1CO [KU0063794] (first compound 0.4 µM, partner dose 0.02 µM), the “cleaved PARP positive nuclei fraction” value was 21.5%. `O=S(=O)(c1ccccc1)N(CC(F)(F)F)c1ccc(C(O)(C(F)(F)F)C(F)(F)F)cc1` + CC(C)CCN1c2nc(Nc3cc(F)c(O)c(F)c3)ncc2N(C)C(=O)C1C [BID1870] (first compound 1.4 µM, partner dose 0.2 µM) was tested, and the “cleaved PARP positive nuclei fraction” value was 140%.
